# Results of single-concentration screens

By UniProt entry, the sequences of proteins in these tests, tags left out. Residues count along the entry.
UniProt A4I591, 1-473: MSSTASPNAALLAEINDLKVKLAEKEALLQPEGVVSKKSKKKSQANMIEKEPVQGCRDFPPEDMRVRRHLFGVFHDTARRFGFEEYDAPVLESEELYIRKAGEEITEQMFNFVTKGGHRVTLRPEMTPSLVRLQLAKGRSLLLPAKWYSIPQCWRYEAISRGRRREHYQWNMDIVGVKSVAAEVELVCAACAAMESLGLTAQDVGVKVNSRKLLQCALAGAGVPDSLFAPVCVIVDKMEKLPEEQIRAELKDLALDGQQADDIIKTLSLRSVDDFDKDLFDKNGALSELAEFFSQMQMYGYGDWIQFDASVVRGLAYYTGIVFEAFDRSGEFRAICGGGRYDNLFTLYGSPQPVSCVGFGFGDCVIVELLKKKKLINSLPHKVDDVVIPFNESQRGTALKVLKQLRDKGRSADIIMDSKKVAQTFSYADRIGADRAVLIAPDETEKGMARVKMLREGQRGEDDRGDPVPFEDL
UniProt Q8IDJ8, 1-583: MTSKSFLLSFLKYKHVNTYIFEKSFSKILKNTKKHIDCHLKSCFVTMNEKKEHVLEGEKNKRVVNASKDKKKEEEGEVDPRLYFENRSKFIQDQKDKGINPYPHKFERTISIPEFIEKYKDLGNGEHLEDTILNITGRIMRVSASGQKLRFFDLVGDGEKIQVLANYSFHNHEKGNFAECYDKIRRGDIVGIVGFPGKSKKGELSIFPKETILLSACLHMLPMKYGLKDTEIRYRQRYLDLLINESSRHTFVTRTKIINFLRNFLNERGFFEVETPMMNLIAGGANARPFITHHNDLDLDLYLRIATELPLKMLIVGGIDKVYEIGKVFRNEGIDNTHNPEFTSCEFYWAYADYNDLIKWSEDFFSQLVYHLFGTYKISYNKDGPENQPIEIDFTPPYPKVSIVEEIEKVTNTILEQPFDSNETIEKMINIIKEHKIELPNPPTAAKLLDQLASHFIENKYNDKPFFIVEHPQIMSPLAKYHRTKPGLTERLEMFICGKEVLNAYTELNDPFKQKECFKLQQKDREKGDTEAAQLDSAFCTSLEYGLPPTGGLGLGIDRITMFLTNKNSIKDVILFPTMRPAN

Source: ChEMBL document CHEMBL3988442, “University of Dundee, Small-Polar-MMV Screening Library” (2021).

LiHisRS: 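Enzyme assay of histidyl-tRNA synthetase; the read-out is not stated. Target: Histidine-tRNA ligase, Leishmania infantum (UniProt A4I591). Compounds at 30 µM. The record gives no direction; compounds that gave an IC50 in retests scored well above the rest, so higher reads as stronger inhibition. The assay is labelled LdHisRS but filed under L. infantum. About 69,000 compounds were tested under these conditions; 0.6% (about 410) showed 50% or more at least once.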
PfKRS1: 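Enzyme assay of the cytosolic lysyl-tRNA synthetase in 384-well plates, read by luminescence. Target: Lysine-tRNA ligase, Plasmodium falciparum 3D7 (UniProt Q8IDJ8). Compounds at 30 µM. Direction is inferred from only a few compounds that gave an IC50; most scored high, so higher reads as stronger inhibition. About 69,000 compounds were tested under these conditions; 0.071% (about 49) showed 50% or more at least once.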

Results are given as percent effect.
The record does not define 0% and 100%; most values in the screen are far below 50% and negative numbers occur (in some assays of this library far below -100).
This is an unselected part of the compounds tested.

With Cc1ccc(C(=O)NCC2COCCO2)c(=O)[nH]1 (configuration not stated) the screen gave LiHisRS: 14.29%; PfKRS1: 1.463%.
With CCCNc1ncc(CN2CCC3(CC2)CNC(=O)C3)cn1 the screen gave LiHisRS: 15.38%; PfKRS1: -1.55%.
With CN(Cc1c(F)cccc1Cl)C(=O)CN(C)C1CCc2ccccc21 (configuration not stated) the screen gave LiHisRS: 14.04%; PfKRS1: 5.543%.
With C[C@@H]1CN(C2CCOC2)C[C@]12CCN(c1cccnc1)C2=O (some centres not stated) the screen gave LiHisRS: 12%; PfKRS1: 1.497%.
With Cc1c(Cn2c(=O)cnc3ccccc32)cnn1C the screen gave LiHisRS: 23.38%; PfKRS1: 2.77%.
With Cc1cnn(C2CCCN(C(=O)Cc3ccc(C)s3)C2)c1 (configuration not stated) the screen gave LiHisRS: 8.929%; PfKRS1: -2.308%.
With CCOc1ccc(CC(=O)N2CCN(c3nccn3C)CC2)cc1 the screen gave LiHisRS: 20.39%; PfKRS1: 10.03%.
With Cc1cccc(-c2ncc(CNC(C)Cc3ccncc3)cn2)c1 (configuration not stated) the screen gave LiHisRS: 11.67%; PfKRS1: 0.2812%.
With CC(Cn1cncc1-c1cnn(C2CCCCC2)c1)N1CCCCC1 (configuration not stated) the screen gave LiHisRS: -7.042%; PfKRS1: -1.684%.
With CCCc1ncc(C(=O)N2CCOC(c3nc(C)n[nH]3)C2)s1 (configuration not stated) the screen gave LiHisRS: 8.108%; PfKRS1: 5.371%.
With Cc1occc1C(=O)N1CCCC2(CCN(c3ccccc3)C2=O)C1 (configuration not stated) the screen gave LiHisRS: 23.29%; PfKRS1: 1.847%.
With Cn1ccc2c(C(=O)NCCCN3CCCC3)cccc21 the screen gave LiHisRS: 21.37%; PfKRS1: 4.123%.
With Cc1ccc(=O)n(Cc2nc(C(C)OCC(C)C)no2)n1 (configuration not stated) the screen gave LiHisRS: 9.211%; PfKRS1: 4.932%.
With O=C1NCCN1C1CCN(c2ccnc(-c3ccccc3)n2)CC1 the screen gave LiHisRS: 26.32%; PfKRS1: 3.168%.
With O=C(c1ccsc1)N1CCc2c(COCC3CC3)cncc2C1 the screen gave LiHisRS: -2.703%; PfKRS1: 3.864%.
With Cc1ncc(C(=O)N2CCCC2c2c(C)nn(C)c2C)s1 (configuration not stated) the screen gave LiHisRS: 2.073%; PfKRS1: 0.984%.
With Cc1noc(C(C)C)c1C(=O)NCC(c1cccc(F)c1)N(C)C (configuration not stated) the screen gave LiHisRS: -5.618%; PfKRS1: 3.543%.
With Cc1ncc(-c2ccnc(N3CCC[C@@H]3CO)n2)c(-c2cccnc2)n1 the screen gave LiHisRS: 17.14%; PfKRS1: 2.402%.
With COc1cc(OC)cc(N2CCC(NCc3ccsc3)C2=O)c1 (configuration not stated) the screen gave LiHisRS: 6.452%; PfKRS1: -2.651%.
With CCn1cncc1Cn1ncc2ccccc2c1=O the screen gave LiHisRS: 11.19%; PfKRS1: 2.748%.
With CC(NCc1cc(F)ccc1F)c1ccc(OCC(=O)NC2CC2)cc1 (configuration not stated) the screen gave LiHisRS: -7.826%; PfKRS1: 2.577%.
With O=C(c1cc[nH]n1)N1CC[C@@H]2CN(Cc3ccncc3)S(=O)(=O)[C@@H]2CC1 the screen gave LiHisRS: 5.263%; PfKRS1: 0.128%.
With CN1CCC(C(=O)N2CCC(=Cc3cccc(F)c3)CC2)CC1=O (configuration not stated) the screen gave LiHisRS: 12%; PfKRS1: 4.169%.
With Cc1ccc(-c2noc([C@@H]3Cc4nc[nH]c4CN3)n2)cc1 the screen gave LiHisRS: 11.11%; PfKRS1: 4.122%.
With O=C1CN(C(=O)CCn2c(C(F)(F)F)cc3cccnc32)CCN1 the screen gave LiHisRS: 15.79%; PfKRS1: 0.4224%.
With CCC(CC)CN1CCN(CC(=O)Nc2cccc3nsnc23)CC1 the screen gave LiHisRS: 5.618%; PfKRS1: 0.975%.
With c1ccc(-c2nc(CNCCn3cccn3)cs2)cc1 the screen gave LiHisRS: 9.434%; PfKRS1: -2.325%.
With CCC1=N[C@@]2(CC[C@@H]3CN(CC)C[C@@H]32)C(=O)N1C the screen gave LiHisRS: 6.364%; PfKRS1: 0.8676%.
With CN(Cc1cc[nH]n1)C(=O)c1cn(Cc2c(F)cccc2F)nn1 the screen gave LiHisRS: 16.48%; PfKRS1: 0%.
With NC(=O)C1(c2cnccn2)CCCN1Cc1ccccn1 (configuration not stated) the screen gave LiHisRS: 18.56%; PfKRS1: 3.649%.
With O=C(CCN1C(=O)CCC1=O)Nc1ccc(Cl)cc1 the screen gave LiHisRS: 9.677%; PfKRS1: -1.151%.
With CN1CCC(N(Cc2ccco2)S(=O)(=O)c2cc(Br)ccc2Br)CC1 the screen gave LiHisRS: 22.86%; PfKRS1: 1.601%.
With Cc1noc(C)c1C(=O)N1CCCN(C)c2ccc(Cl)cc21 the screen gave LiHisRS: 16.67%; PfKRS1: 3.877%.
With O=C(c1cscn1)N1CC[C@@H]2[C@@H]1CCN2CC1CCOC1 (some centres not stated) the screen gave LiHisRS: 13.21%; PfKRS1: 0.8472%.
With COc1ccc2nnc(CCCC(=O)NCc3ccccc3F)n2n1 the screen gave LiHisRS: 14.13%; PfKRS1: 5.102%.
With CC(C)n1c(C(=O)N2CCCC2)nc2c1CCN(C)C2 the screen gave LiHisRS: -1.724%; PfKRS1: 6.186%.
With CCN(Cc1nc(C)no1)C(=O)C1CC(=O)N(Cc2ccccn2)C1 (configuration not stated) the screen gave LiHisRS: 6.557%; PfKRS1: 3.042%.
With COCCN1CC[C@]2(CN(Cc3ccccn3)C[C@H]2C)C1=O the screen gave LiHisRS: 5.172%; PfKRS1: 2.029%.
With CN(C)S(=O)(=O)N1CCN(C(=O)OC(C)(C)C)CC12CCCCC2 the screen gave LiHisRS: 12.09%; PfKRS1: -2.997%.
With O=C(CC1=CCCCC1)N1CCC(Cn2cc(CCO)nn2)CC1 the screen gave LiHisRS: 10.26%; PfKRS1: 3.75%.
With CC(C)[C@@H]1CN(CCOc2ccccc2)C[C@H]1NS(=O)(=O)N(C)C the screen gave LiHisRS: 12.82%; PfKRS1: 6.109%.
With Cc1nc(CNc2nc3c(s2)c(C)nn3C)cs1 the screen gave LiHisRS: 22.37%; PfKRS1: 1.377%.
With Cc1cc(CNC(=O)C2CCN(CC(N)=O)CC2)cc(C)n1 the screen gave LiHisRS: 15%; PfKRS1: 2.947%.
With c1ccc(COC[C@@]23CCC[C@@H]2CN(Cc2ccccn2)C3)nc1 the screen gave LiHisRS: 14.04%; PfKRS1: 0.8747%.
With CCN(Cc1ccco1)C(C)c1nc(C(C)C)no1 (configuration not stated) the screen gave LiHisRS: 12.86%; PfKRS1: 8.399%.
With CN(C)C(=O)COCc1nnc2n1CCN(Cc1ccoc1)C2 the screen gave LiHisRS: 24%; PfKRS1: 7.577%.

Repeated from the top, 5 entries:

For Cc1ccc(C(=O)NCC2COCCO2)c(=O)[nH]1 (configuration not stated) the result was LiHisRS: 14.29%; PfKRS1: 1.463%.
For CCCNc1ncc(CN2CCC3(CC2)CNC(=O)C3)cn1 the result was LiHisRS: 15.38%; PfKRS1: -1.55%.
For CN(Cc1c(F)cccc1Cl)C(=O)CN(C)C1CCc2ccccc21 (configuration not stated) the result was LiHisRS: 14.04%; PfKRS1: 5.543%.
For C[C@@H]1CN(C2CCOC2)C[C@]12CCN(c1cccnc1)C2=O (some centres not stated) the result was LiHisRS: 12%; PfKRS1: 1.497%.
For Cc1c(Cn2c(=O)cnc3ccccc32)cnn1C the result was LiHisRS: 23.38%; PfKRS1: 2.77%.